Details: human

SMILES: CN1CC[C@]23c4c5ccc(O)c4O[C@H]2[C@@H](O)C=C[C@H]3[C@H]1C5 [morphine]
- concentration in oral fluid: 118.97 ng/mL
